From the supplement of paper PMC12542422 come the findings set out here.

Where a name gives a salt, the structure may show the parent alone. ± gives the standard deviation of the averaged measurements. The list shows a part of the results. These are raw signals, not scaled to a control.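 HeLa cells imaged for ribosome-assembly readouts (ENP1 staining with or without export block, or inducible tagged ribosomal protein reporters); machine learning classified each cell's signal location against solvent (DMSO) controls. Hits exceeded the DMSO false-positive mean by five standard deviations, then were visually confirmed; three biological replicates.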

The subject of the assay is HeLa RPL29-GFP reporter. Put plainly: fraction of reporter-positive cells with nuclear (nucleolar or nucleolar/nucleoplasmic) RPL29-GFP (MainHitrate); higher = more cells with nucleolar/nuclear readout signal (for ENP1 -LMB: less RNAPI inhibition; for +LMB ENP1 and RP reporters: stronger nuclear/nucleolar retention, i.e. ribosome biogenesis defect). The note with it: concentration: 1 µM; treatment time: 6 h.
With `Cc1cccc(Cc2c[nH]cn2)c1C` [Detomidine HCl], the “fraction of reporter-positive cells with nuclear” value (“fraction” below) came out at 0.237 ± 0.062. Consider `CCC1=C[C@H]2CN3CCc4c([nH]c5ccccc45)[C@](C(=O)OC)(C2)[C@H]13` [Catharanthine], for which the “fraction” value was 0.203 ± 0.037. Consider `Cc1cccc(C)c1NC(=O)CN1CCCC1=O` [Nefiracetam (Translon)], for which the “fraction” value was found to be 0.267 ± 0.07. For `CCC(COC(=O)c1cc(OC)c(OC)c(OC)c1)(c1ccccc1)N(C)C` (stereo not drawn) [Trimebutine] the value was 0.22 ± 0.054; for `CC(O)(CS(=O)(=O)c1ccc(F)cc1)C(=O)Nc1ccc(C#N)c(C(F)(F)F)c1` (stereo not drawn) [Bicalutamide (Casodex)], 0.192 ± 0.057. For `O=C(O[C@H]1C[C@H]2CC[C@@H](C1)[N+]21CCCC1)C(O)(c1ccccc1)c1ccccc1` [Trospium chloride (Sanctura)] the value was 0.279 ± 0.081; for `CNC(=O)Oc1ccc2c(c1)[C@]1(C)CCN(C)[C@@H]1N2C` [Physostigmine Salicylate], 0.288 ± 0.24; for `O=P1(N(CCCl)CCCl)NCCCO1` (stereo not drawn) [Cyclophosphamide monohydrate], 0.233 ± 0.081.

For `C=C1CC[C@@]2(O)[C@H]3Cc4ccc(O)c5c4[C@@]2(CCN3CC2CC2)[C@H]1O5` [Nalmefene HCl], the “fraction” value amounted to 0.294 ± 0.23. For `CCCCCCCCCCCCCCCC[n+]1ccccc1` [Cetylpyridinium Chloride] the value was 0.236 ± 0.039; for `CN1[C@@H]2CC(O)C[C@H]1[C@@H]1O[C@@H]12` (stereo partly drawn) [Scopine], 0.229 ± 0.068. `CC(C)=CC1C(C(=O)OCc2cccc(Oc3ccccc3)c2)C1(C)C` (stereo not drawn) [Phenothrin]: the “fraction” value came out at 0.296 ± 0.24. Turning to `O=S(=O)(F)Cc1ccccc1` [PMSF (Phenylmethylsulfonyl Fluoride)], the “fraction” value amounted to 0.21 ± 0.057.
